{"source": "the supplement of paper PMC8728848", "binders": {"B1": {"name": "PX14343C-bfa-541-26-541 (Bacteroides fragilis) (protein)", "chain": "KAPLDEIADDSFWSDETLVKYYVNDLYSEISVDGLQLQENRSDNSVSAQRDKYRASWFKFNYDMVSASDPQDDDVWEDYYVKVRKCNRFFERIGTSTIEESEKSRLTGEVHFLRAMFYFEMVKRYGGVILLDKVLTMEDNWEIPRSSEKECYDFILEDLKKATEMLPASYGSREKGRATKGAAYALKSRVELYDKRYEDVIKSCAEVYKLGYELVDGTTPEKYRSIWWTTNKDNKEIIFDVQYKSPDVYNNMMVCNMVTYINDKYGDRGWGGLGPTQELIDAFEMADGTPATQYSQAPADQVFDINTCGIYEGREPRFYANIVFHGSQIFFNADKGAVTVDRYLMDTPDKGDGSLTGYNVWKWIDYDNYNYPYAGAGSPDFSTNWIILRYAEIYLNDAEARLETGDVEGARKAVNMIRQRVGLPDLTESDPEKLRELIRKERRIEFAFEEQRFYDVRRWKIGPETQTTLHGVRFVSPTEFKVTKTDIRTWNDRLYLTPVPHDEIVRSSVLKQNLGY"}}, "experiment_in_all_cases": "glycan array binding signal (z-score within array); higher = stronger binding", "conditions_in_all_cases": "glycan notation: IUPAC condensed, linker removed", "key": {"Gal6S(b1-4)Glc6S": {"molecular_target": "Gal6S(b1-4)Glc6S", "summary_of_the_method": "(§1)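 Negative Z-scores can be read as non-binding. The Z-score is calculated within each array and then averaged across arrays of one protein sequence at different concentrations or buffers and across linkers. Arrays, 3228 in all, were curated from the Consortium for Functional Glycomics database and kept only where the protein sequence was available.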"}, "Gal6S(b1-4)GlcNAc": {"molecular_target": "Gal6S(b1-4)GlcNAc", "summary_of_the_method": "as §1"}, "Gal6S(b1-4)GlcNAc6S": {"molecular_target": "Gal6S(b1-4)GlcNAc6S", "summary_of_the_method": "as §1"}, "GalNAc(a1-3)Gal": {"molecular_target": "GalNAc(a1-3)Gal", "summary_of_the_method": "as §1"}, "GalNAc(a1-3)GalNAc": {"molecular_target": "GalNAc(a1-3)GalNAc", "summary_of_the_method": "as §1"}, "[1]": {"molecular_target": "GalNAc(a1-3)GalNAc(b1-3)Gal(a1-4)Gal(b1-4)Glc", "summary_of_the_method": "as §1"}, "[2]": {"molecular_target": "GalNAc(a1-3)GalNAc(b1-3)Gal(a1-4)Gal(b1-4)GlcNAc", "summary_of_the_method": "as §1"}, "GalNAc(b1-3)Gal": {"molecular_target": "GalNAc(b1-3)Gal", "summary_of_the_method": "as §1"}, "[3]": {"molecular_target": "GalNAc(b1-3)Gal(a1-4)Gal(b1-4)GlcNAc", "summary_of_the_method": "as §1"}, "[4]": {"molecular_target": "GalNAc(b1-3)Gal(a1-4)Gal(b1-4)GlcNAc(b1-3)Gal(b1-4)Glc", "summary_of_the_method": "as §1"}, "[5]": {"molecular_target": "GalNAc(b1-3)Gal(a1-6)Gal(b1-4)Glc", "summary_of_the_method": "as §1"}, "GalNAc(b1-3)GalNAc": {"molecular_target": "GalNAc(b1-3)GalNAc", "summary_of_the_method": "as §1"}, "GalNAc(b1-3)GlcNAc": {"molecular_target": "GalNAc(b1-3)GlcNAc", "summary_of_the_method": "as §1"}, "GalNAc(b1-4)Gal(b1-4)Glc": {"molecular_target": "GalNAc(b1-4)Gal(b1-4)Glc", "summary_of_the_method": "as §1"}, "GalNAc(b1-4)GlcNAc": {"molecular_target": "GalNAc(b1-4)GlcNAc", "summary_of_the_method": "as §1"}, "[6]": {"molecular_target": "GalNAc(b1-4)GlcNAc(b1-2)Man", "summary_of_the_method": "as §1"}, "[7]": {"molecular_target": "GalNAc(b1-4)GlcNAc(b1-2)Man(a1-3)[GalNAc(b1-4)GlcNAc(b1-2)Man(a1-6)]Man(b1-4)GlcNAc(b1-4)GlcNAc", "summary_of_the_method": "as §1"}, "[8]": {"molecular_target": "GalNAc(b1-4)GlcNAc(b1-3)GalNAc(b1-4)GlcNAc", "summary_of_the_method": "as §1"}, "GalNAc(b1-4)GlcNAc6S": {"molecular_target": "GalNAc(b1-4)GlcNAc6S", "summary_of_the_method": "as §1"}, "GalNAc(b1-6)GalNAc": {"molecular_target": "GalNAc(b1-6)GalNAc", "summary_of_the_method": "as §1"}, "GalNAc3S(b1-4)GlcNAc": {"molecular_target": "GalNAc3S(b1-4)GlcNAc", "summary_of_the_method": "as §1"}, "GalNAc3S(b1-4)GlcNAc3S": {"molecular_target": "GalNAc3S(b1-4)GlcNAc3S", "summary_of_the_method": "as §1"}, "[9]": {"molecular_target": "GalNAc3S(b1-4)[Fuc(a1-3)]GlcNAc", "summary_of_the_method": "as §1"}, "GalNAc4S6S(b1-4)GlcNAc": {"molecular_target": "GalNAc4S6S(b1-4)GlcNAc", "summary_of_the_method": "as §1"}, "GalNAc6S(b1-4)GlcNAc": {"molecular_target": "GalNAc6S(b1-4)GlcNAc", "summary_of_the_method": "as §1"}, "Glc(a1-4)Glc": {"molecular_target": "Glc(a1-4)Glc", "summary_of_the_method": "as §1"}, "[10]": {"molecular_target": "Glc(a1-4)Glc(a1-4)Glc(a1-4)Glc", "summary_of_the_method": "as §1"}, "Glc(a1-6)Glc(a1-6)Glc": {"molecular_target": "Glc(a1-6)Glc(a1-6)Glc", "summary_of_the_method": "as §1"}, "[11]": {"molecular_target": "Glc(a1-6)Glc(a1-6)Glc(a1-6)Glc", "summary_of_the_method": "as §1"}, "Glc(b1-4)Glc": {"molecular_target": "Glc(b1-4)Glc", "summary_of_the_method": "as §1"}, "Glc(b1-6)Glc": {"molecular_target": "Glc(b1-6)Glc", "summary_of_the_method": "as §1"}, "GlcA(b1-3)Gal": {"molecular_target": "GlcA(b1-3)Gal", "summary_of_the_method": "as §1"}, "GlcA(b1-3)GlcNAc": {"molecular_target": "GlcA(b1-3)GlcNAc", "summary_of_the_method": "as §1"}, "GlcA(b1-6)Gal": {"molecular_target": "GlcA(b1-6)Gal", "summary_of_the_method": "as §1"}, "[12]": {"molecular_target": "GlcA3S(b1-3)Gal(b1-4)GlcNAc(b1-2)Man", "summary_of_the_method": "as §1"}, "[13]": {"molecular_target": "GlcA3S(b1-3)Gal(b1-4)GlcNAc(b1-3)Gal(b1-4)Glc", "summary_of_the_method": "as §1"}, "[14]": {"molecular_target": "GlcNAc(a1-3)Gal(b1-4)GlcNAc", "summary_of_the_method": "as §1"}, "[15]": {"molecular_target": "GlcNAc(a1-4)Gal(b1-3)GlcNAc", "summary_of_the_method": "as §1"}, "[16]": {"molecular_target": "GlcNAc(a1-4)Gal(b1-4)GalNAc", "summary_of_the_method": "as §1"}, "[17]": {"molecular_target": "GlcNAc(a1-4)Gal(b1-4)GlcNAc", "summary_of_the_method": "as §1"}, "[18]": {"molecular_target": "GlcNAc(a1-4)Gal(b1-4)GlcNAc(b1-3)Gal(b1-4)Glc", "summary_of_the_method": "as §1"}, "[19]": {"molecular_target": "GlcNAc(a1-4)Gal(b1-4)GlcNAc(b1-3)Gal(b1-4)GlcNAc", "summary_of_the_method": "as §1"}, "[20]": {"molecular_target": "GlcNAc(a1-4)Gal(b1-4)GlcNAc(b1-3)Gal(b1-4)GlcNAc(b1-3)Gal(b1-4)GlcNAc", "summary_of_the_method": "as §1"}, "[21]": {"molecular_target": "GlcNAc(a1-4)Gal(b1-4)GlcNAc(b1-3)Gal(b1-4)[Fuc(a1-3)]GlcNAc(b1-3)Gal(b1-4)[Fuc(a1-3)]GlcNAc", "summary_of_the_method": "as §1"}, "[22]": {"molecular_target": "GlcNAc(a1-6)Gal(b1-4)GlcNAc", "summary_of_the_method": "as §1"}}, "note": "This is one part of the list.", "data": [{"binder": "B1", "values": [{"measurement": "glycan array binding signal (z-score)", "setting": "Gal6S(b1-4)Glc6S", "value": 1.46}, {"measurement": "glycan array binding signal (z-score)", "setting": "Gal6S(b1-4)GlcNAc", "value": -0.41}, {"measurement": "glycan array binding signal (z-score)", "setting": "Gal6S(b1-4)GlcNAc6S", "value": 2.26}, {"measurement": "glycan array binding signal (z-score)", "setting": "GalNAc(a1-3)Gal", "value": 0.821}, {"measurement": "glycan array binding signal (z-score)", "setting": "GalNAc(a1-3)GalNAc", "value": 0.247}, {"measurement": "glycan array binding signal (z-score)", "setting": "[1]", "value": -0.756}, {"measurement": "glycan array binding signal (z-score)", "setting": "[2]", "value": -0.938}, {"measurement": "glycan array binding signal (z-score)", "setting": "GalNAc(b1-3)Gal", "value": -0.663}, {"measurement": "glycan array binding signal (z-score)", "setting": "[3]", "value": 2.08}, {"measurement": "glycan array binding signal (z-score)", "setting": "[4]", "value": -0.667}, {"measurement": "glycan array binding signal (z-score)", "setting": "[5]", "value": 1.19}, {"measurement": "glycan array binding signal (z-score)", "setting": "GalNAc(b1-3)GalNAc", "value": -0.204}, {"measurement": "glycan array binding signal (z-score)", "setting": "GalNAc(b1-3)GlcNAc", "value": -0.191}, {"measurement": "glycan array binding signal (z-score)", "setting": "GalNAc(b1-4)Gal(b1-4)Glc", "value": -0.07}, {"measurement": "glycan array binding signal (z-score)", "setting": "GalNAc(b1-4)GlcNAc", "value": -0.418}, {"measurement": "glycan array binding signal (z-score)", "setting": "[6]", "value": -0.931}, {"measurement": "glycan array binding signal (z-score)", "setting": "[7]", "value": 3.4}, {"measurement": "glycan array binding signal (z-score)", "setting": "[8]", "value": 0.461}, {"measurement": "glycan array binding signal (z-score)", "setting": "GalNAc(b1-4)GlcNAc6S", "value": -1.13}, {"measurement": "glycan array binding signal (z-score)", "setting": "GalNAc(b1-6)GalNAc", "value": -0.726}, {"measurement": "glycan array binding signal (z-score)", "setting": "GalNAc3S(b1-4)GlcNAc", "value": -0.515}, {"measurement": "glycan array binding signal (z-score)", "setting": "GalNAc3S(b1-4)GlcNAc3S", "value": -0.887}, {"measurement": "glycan array binding signal (z-score)", "setting": "[9]", "value": -0.109}, {"measurement": "glycan array binding signal (z-score)", "setting": "GalNAc4S6S(b1-4)GlcNAc", "value": -0.04}, {"measurement": "glycan array binding signal (z-score)", "setting": "GalNAc6S(b1-4)GlcNAc", "value": -0.178}, {"measurement": "glycan array binding signal (z-score)", "setting": "Glc(a1-4)Glc", "value": -0.938}, {"measurement": "glycan array binding signal (z-score)", "setting": "[10]", "value": 0.357}, {"measurement": "glycan array binding signal (z-score)", "setting": "Glc(a1-6)Glc(a1-6)Glc", "value": 0.168}, {"measurement": "glycan array binding signal (z-score)", "setting": "[11]", "value": 0.433}, {"measurement": "glycan array binding signal (z-score)", "setting": "Glc(b1-4)Glc", "value": -0.686}, {"measurement": "glycan array binding signal (z-score)", "setting": "Glc(b1-6)Glc", "value": -0.118}, {"measurement": "glycan array binding signal (z-score)", "setting": "GlcA(b1-3)Gal", "value": -0.328}, {"measurement": "glycan array binding signal (z-score)", "setting": "GlcA(b1-3)GlcNAc", "value": -0.706}, {"measurement": "glycan array binding signal (z-score)", "setting": "GlcA(b1-6)Gal", "value": 0.479}, {"measurement": "glycan array binding signal (z-score)", "setting": "[12]", "value": 0.092}, {"measurement": "glycan array binding signal (z-score)", "setting": "[13]", "value": -0.274}, {"measurement": "glycan array binding signal (z-score)", "setting": "[14]", "value": -0.839}, {"measurement": "glycan array binding signal (z-score)", "setting": "[15]", "value": 0.456}, {"measurement": "glycan array binding signal (z-score)", "setting": "[16]", "value": 0.256}, {"measurement": "glycan array binding signal (z-score)", "setting": "[17]", "value": -0.593}, {"measurement": "glycan array binding signal (z-score)", "setting": "[18]", "value": -0.77}, {"measurement": "glycan array binding signal (z-score)", "setting": "[19]", "value": 0.216}, {"measurement": "glycan array binding signal (z-score)", "setting": "[20]", "value": -1.04}, {"measurement": "glycan array binding signal (z-score)", "setting": "[21]", "value": 1.91}, {"measurement": "glycan array binding signal (z-score)", "setting": "[22]", "value": -1.31}]}]}
